In PMC7819943, “Rice protein-binding microarrays: a tool to detect cis-acting elements near promoter regions in rice” one finds binding signal data, which are given here for 42 sequences.

The list shows a part of the results.

The experiment deals with T1, OsSMF1 (Oryza sativa, UniProt Q6ZLB0 1-436).
T1 sequence: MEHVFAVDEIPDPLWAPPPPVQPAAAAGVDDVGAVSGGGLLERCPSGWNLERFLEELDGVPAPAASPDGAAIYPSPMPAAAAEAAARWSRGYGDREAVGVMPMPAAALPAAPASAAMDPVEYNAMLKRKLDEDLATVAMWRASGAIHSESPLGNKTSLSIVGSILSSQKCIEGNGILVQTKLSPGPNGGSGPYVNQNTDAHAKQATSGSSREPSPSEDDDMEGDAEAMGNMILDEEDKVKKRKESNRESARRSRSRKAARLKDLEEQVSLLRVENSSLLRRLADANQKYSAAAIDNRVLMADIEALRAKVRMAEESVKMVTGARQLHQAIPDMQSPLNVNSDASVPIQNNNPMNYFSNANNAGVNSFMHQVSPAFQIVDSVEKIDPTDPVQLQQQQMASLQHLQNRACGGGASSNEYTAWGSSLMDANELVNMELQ
Briefly: protein-binding microarray (RPBM); PBS, 2% BSA, 51.3 ng/ul salmon testes DNA, 50 uM zinc acetate, 200 nM TF, 25 C, 1 h; high values mean tight binding. The conditions noted are these: protein: recombinant; tags: N-terminal polyhistidine and DsRed monomer fusion (pET32a); chain copies: 2; label: CyDye5-dUTP incorporated in the synthesized complementary strand; 3' TTTTT single-stranded linker to array surface; dsDNA, one strand shown. Summed up: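 The binding signal for each feature is its fluorescence intensity in arbitrary units. An Axon 4000B scanner was used to read a custom Agilent array that had been made double-stranded with Cy5-dUTP primer extension, blocked with 2% BSA, incubated at 25 °C for 1 h with 200 nM protein in PBS, 2% BSA, salmon testes DNA and 50 µM zinc acetate, and washed. The protein was an N-terminal polyhistidine–DsRed transcription factor fusion from E. coli BL21-CodonPlus, purified on Ni–NTA.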
For “ATATGCATGGTTCTATTTTGTTTACATGTAGTATAGGTCACGGAGTCACCTAGTGCAG”, the binding signal is 3320 fluorescence intensity (a.u.).
For the sequence “GGCATGCTTTTATCCAAAAGGCTACAATCAAGAGTTGCTTCGGAGTCACCTAGTGCAG”, the binding signal is 15900 fluorescence intensity (a.u.).
With “AATACAGGAAAACATGGATCAGATGGCCGTGCGATTACACCGGAGTCACCTAGTGCAG”, the binding signal was 3150 fluorescence intensity (a.u.).
Consider “GTAGGAGACGGTGACGTCAACCGGCTTGTAGGGAGCCTTGCGGAGTCACCTAGTGCAG”, for which the binding signal is 6880 fluorescence intensity (a.u.).
The value for “TTGAGATACCACATCTCGGCCAGCTTCGTCATCTTCCCGCCGGAGTCACCTAGTGCAG” was 3920 fluorescence intensity (a.u.); that for “CGACCAAACAGTCACACGGGCCACCGGACCAGCCGTCACCCGGAGTCACCTAGTGCAG” was 3470 fluorescence intensity (a.u.).
Under “GCAAGCAACTAAGCAAGACGACACGGTCTCTGTCCTACCACGGAGTCACCTAGTGCAG” stands 3990 fluorescence intensity (a.u.); under “AAGCATATAAAGCATATGGGTTCAGTATGTCACCACAACCCGGAGTCACCTAGTGCAG”, 3350 fluorescence intensity (a.u.).
Turning to “TGGTGACGACGTGTCGACGCCTTCAAGTCACTGAGTCATGCGGAGTCACCTAGTGCAG”, the binding signal was 29000 fluorescence intensity (a.u.).
Take “CCAACGGCCCACCCTATAGCTAGCGCCACCACCGACACCACGGAGTCACCTAGTGCAG”: the binding signal is 3210 fluorescence intensity (a.u.).
Regarding “CGATAATTAGAAGTTCTCCCAAATAGGCCCATTGTTTCACCGGAGTCACCTAGTGCAG”, the binding signal is 3170 fluorescence intensity (a.u.).
Under “AATAAGACGAAGAGTCACGTTGTATCACAAGGGAGTATCTCGGAGTCACCTAGTGCAG” stands 3210 fluorescence intensity (a.u.); under “CCACCGAAGCCGCCGCCACGTCATGCCCCGGCTGCGGTTTCGGAGTCACCTAGTGCAG”, 16400 fluorescence intensity (a.u.).
Under “CGTGTATACCTTATTACCGCCGGGACCAACTGAAAGAAGTCGGAGTCACCTAGTGCAG” stands 34500 fluorescence intensity (a.u.).
As for “GCGTCGAGGTTGTCCGCCACCACGTGGCTGAATTGGAACCCGGAGTCACCTAGTGCAG”, the binding signal is 9340 fluorescence intensity (a.u.).
As to “TGTGTGTATAACAGGTGAGACCATATACATGTGTATATAACGGAGTCACCTAGTGCAG”, the binding signal is 3160 fluorescence intensity (a.u.).
Consider “AACACTTGCGCATCCACCCACCCCAACCGACCAAAGCTCGCGGAGTCACCTAGTGCAG”, for which the binding signal is 3490 fluorescence intensity (a.u.).
Turning to “TAGGCCCCATCCATCAATCCATCACGCTGGGCCGTCTGTGCGGAGTCACCTAGTGCAG”, the binding signal is 3320 fluorescence intensity (a.u.).
For the sequence “GATTTGCCACCTAAGAACTAGATGAGGCAATAAATATACCCGGAGTCACCTAGTGCAG”, the binding signal is 4480 fluorescence intensity (a.u.).
“ATGACGAGGGTGGATCCGTGGATGTGCGTTGGCTGCCTATCGGAGTCACCTAGTGCAG”: the binding signal was 4096 fluorescence intensity (a.u.).
Consider “ACAAATGGATCCACCCATTAGATGACGTGGTTCTTTCCCTCGGAGTCACCTAGTGCAG”, for which the binding signal is 14500 fluorescence intensity (a.u.).
As to “CCCGTTCCCCTTCCCCACTCCGTCCCGGCAGCTACCTCCGCGGAGTCACCTAGTGCAG”, the binding signal is 8040 fluorescence intensity (a.u.).
“AATCTAGACATCTATCTAATGTGACACCTCACGGGTGAAGCGGAGTCACCTAGTGCAG”: the binding signal is 4380 fluorescence intensity (a.u.).
“AAAATCCGATTAGTTAATTAGTTAGTTAAGTGATGTGGTACGGAGTCACCTAGTGCAG”: the binding signal was 3630 fluorescence intensity (a.u.).
With “TAGTTTATAACATGTGGATCCTCCATGTGTCTATGATATACGGAGTCACCTAGTGCAG”, the binding signal is 4020 fluorescence intensity (a.u.).
With “CAAGTGATAATCTATACCTAGTTGATGATGCCAATATCATCGGAGTCACCTAGTGCAG”, the binding signal is 4340 fluorescence intensity (a.u.).
As to “GCCCTCCTCCTTCACTCCCGTGCGTCGTCACTGCCGCAACCGGAGTCACCTAGTGCAG”, the binding signal was 3370 fluorescence intensity (a.u.).
Regarding “GCGGAAGCGGGAAACAATCTTACCGCCCGCGTCATCGCGCCGGAGTCACCTAGTGCAG”, the binding signal was 3300 fluorescence intensity (a.u.).
Under “GCAGCGACGCGGCGGAGTGGCAGGGCCCGTGGTCAGATGACGGAGTCACCTAGTGCAG” stands 4360 fluorescence intensity (a.u.).
“TAGCCGCTTCGGCAGCTTTCTTGACTACACGTACTCGGTTCGGAGTCACCTAGTGCAG”: the binding signal is 3360 fluorescence intensity (a.u.).
Take “GTTGGAACAATTAATGTGCTGCAGGCAATAACAATCCAGTCGGAGTCACCTAGTGCAG”: the binding signal is 48700 fluorescence intensity (a.u.).
Regarding “GTGGCCCGCATGCCAAATTGTGTCACGCAAGCCGTAATCCCGGAGTCACCTAGTGCAG”, the binding signal is 3620 fluorescence intensity (a.u.).
In the case of “CGGCAACAGCGGTGACAACGTGACGACGGGTGACGAGGCGCGGAGTCACCTAGTGCAG”, the binding signal is 5320 fluorescence intensity (a.u.).
For “GAGGCGTGCGGGATGGTGTGGGTTAATCTGGGATAAGGATCGGAGTCACCTAGTGCAG”, the binding signal is 3900 fluorescence intensity (a.u.).
Under “TAGTCTTATGATTACCCACCGCCGCACGTGGCCACTTGCTCGGAGTCACCTAGTGCAG” stands 4250 fluorescence intensity (a.u.); under “TAGTGTCTAGTACTAGTTTCTTGATGATGTGGAGTTTATGCGGAGTCACCTAGTGCAG”, 6010 fluorescence intensity (a.u.); under “CTCCTCTAACTAACATAACTTCCCACTGACGTGGTCATTTCGGAGTCACCTAGTGCAG”, 12900 fluorescence intensity (a.u.).
The value for “TCTCGTCGTCGACCTCCTCCCGCTGCTCCCGTTGCGGCGGCGGAGTCACCTAGTGCAG” was 3450 fluorescence intensity (a.u.); that for “AGTAAGTATGTCAGCCAAGTCTCCATGTAAATGTGAATCACGGAGTCACCTAGTGCAG” was 3670 fluorescence intensity (a.u.).
“CATTATACTGGAGCATCATTGGACACGTGACAGATTTTGACGGAGTCACCTAGTGCAG”: the binding signal was 3400 fluorescence intensity (a.u.).
With “CGCCGCCTCCGCCTCGCACAGCCGCCATCCCCGCCTCCGCCGGAGTCACCTAGTGCAG”, the binding signal is 3260 fluorescence intensity (a.u.).
Take “GTAGGCTTTGGTAAAATTCTCACGTCAGGAAGGAACAGCTCGGAGTCACCTAGTGCAG”: the binding signal was 5060 fluorescence intensity (a.u.).
